At least one peptide structure holds a part that was inferred or is arguable (an end, a ring closure or a residue). Where no end group is shown, it is not given here.
Key:
E. coli [1] = test: E. coli growth monitored via OD600 nm with CecA or OMN6; type: cell-based; details: 12.5 μM
Protocol: An assay was conducted in order to compare the antimicrobial activity of the native peptide Cecropin A (CecA) vs. a peptide of the invention OMN6. E. coli bacteria were cultured with CecA or OMN6 in concentration of 12.5 μM for 17-20 hours. The growth of the bacteria was continuously monitored via spectrophotometry at 600 nm. As bacterial growth progresses, OD600 nm values rise, and where the growth is inhibited OD600 nm values remain constant. […] The bacteria completely overcame the inhibitory effect of CecA after 10 hours. The bacteria then continued to thrive and grow to density similar to that of the CTRL group.

E. coli [2] = test: Antimicrobial activity after pre-treatment of peptide with Proteinase-K; type: cell-based; details: 12.5 μM peptide pre-treated with 20 ng ProtK for 2 hours at 37° C., 18 hours
Protocol: The susceptibility of OMN6/CecA to proteolytic degradation was assessed and the effects of stability on activity were determined. Native peptide-CecA and engineered peptide-OMN6 were incubated with 20 ng of Proteinase-K (ProtK) at 37° C. for two hours (left bars and right bars, respectively). E. coli at 500,000 CFU/ml were incubated for 18 hours with either CecA or OMN6 pretreated with ProtK. After the incubation, bacterial survival was determined via absorption at OD600 nm and via CFU count on agar plates.

## KWKLFKKIEKVGQNIRDGIIKAGPAVAVVGQATQIAK-NH2 (C-terminus assumed) [CecA, reference compound]
E. coli [1]; 17-20 hours
  Inhibition of E. coli growth (OD600 nm): no significant inhibition of growth
E. coli [1]; E. coli
  Duration of growth inhibition: 10 h
E. coli [2]
  Bacterial survival/growth as percent of CTRL group: more than 70%
